From PubChem BioAssay AID540256 (National Center for Advancing Translational Sciences (NCATS), 2011)
Screen size: about 300,000 compounds; about 3,700 (1.2%) were called active. Inconclusive means that the source gave no clear call. Such entries were picked first, then a sample of the others. Calls follow the shape of the full dose curve; tested in HEK293 cells. A potency beside an inconclusive call is a rough fit, not a confirmed value.

Experiment: qHTS for Inhibitors of binding or entry into cells for Lassa Virus; also: nearly all actives have a fitted effect of over 50% in size
Conditions: Lassa virus pseudotype entry inhibition, cell reporter; activity change, negative = inhibition: at 37.9 µM (top of the series) unless noted
% is scaled to controls: 0 for no effect and ±100 for the full control effect; potency is read from the fitted curve at half-maximal effect.

Structure (SMILES) | Potency | activity change, negative = inhibition
CCOc1cc(/C=N/NC(N)=S)cc(Br)c1OCc1ccccc1C | inconclusive: 8.2 µM [inhibitor, partial curve] | –
CCOc1cccc(/C=N/NC(=O)C2CCCC2)c1O | inconclusive: 7.94 µM [inhibitor, partial curve, poor fit] | –
CCCn1c(O)c(N=Nc2ccc3ccccc3n2)c2ccccc21 | inconclusive: 3.98 µM [activator, partial curve, poor fit] | –
c1ccc(C2Nc3ccccc3-c3nc4ccccc4n32)nc1 (stereo not given) | inconclusive: 35.5 µM [inhibitor, single point] | –
COC(=O)Cc1ccc(NC(=S)NCCSc2ccc(Cl)cc2)cc1 | inactive | –
CCc1nc(N2CCN(C(=O)c3ccccc3)CC2)c2c3c(sc2n1)CCCC3 | inconclusive: 2 µM [inhibitor, full curve, poor fit] | –
N#Cc1ccc(CSc2nnc(-c3cccc(S(=O)(=O)N4CCCCC4)c3)o2)cc1 | inconclusive: 35.5 µM [inhibitor, single point] | –
CCc1cccc(-n2nnc(-c3nsc(NC(=O)c4cccs4)n3)c2C)c1 | inconclusive: 20 µM [activator, single point] | –
CCCCN(CC)CCNC(=O)c1cn(C)c(=O)c2c1c1ccccc1n2C | inconclusive: 5.62 µM [inhibitor, single point] | –
O=C(Cc1coc(-c2ccc(F)cc2)n1)N1CCOCC1 | inconclusive: 35.5 µM [activator, single point] | –
COc1cc(/C=N/NC(=O)COc2ccccc2[N+](=O)[O-])ccc1OC(=O)c1ccco1 | inactive | –
Cc1cc(-c2ccco2)n(-c2ccccc2)n1 | inconclusive: 0.517 µM [inhibitor, partial curve, poor fit] | –
CS(=O)(=O)c1ccc(N2CCN(c3ccccn3)CC2)c([N+](=O)[O-])c1 | inconclusive: 5.01 µM [activator, full curve, poor fit] | –
COc1ccccc1N1CCN(CCCNC(=O)c2cnn(-c3cccc(Cl)c3)c2C2CCN(C(=O)OC(C)(C)C)CC2)CC1 | inconclusive: 10 µM [inhibitor, partial curve, poor fit] | –
CN(C)c1ccc2c(c1)N=C(c1ccco1)OP2(=S)N1CCOCC1 (stereo not given) | inactive | –
COc1cc(CCC(C)=O)ccc1OC(=O)c1c(F)cccc1Cl | inconclusive: 3.16 µM [activator, single point] | –
CSc1ccc(CNCC2CCCO2)cc1 (stereo not given) | inconclusive: 0.562 µM [inhibitor, partial curve, poor fit] | –
O=C(N/N=C/c1cccc([N+](=O)[O-])c1)c1cc(-c2ccc3c(c2)OCO3)n[nH]1 | inactive | –
CCOc1ccc(N(CC(=O)NCC2CCCO2)S(=O)(=O)c2ccc(C)cc2)cc1 (stereo not given) | inconclusive: 14.1 µM [inhibitor, partial curve, poor fit] | –
O=C(NCCc1cn2ccccc2n1)c1ccccc1F | inactive | –
CCC1CO/C(=C(\C(Cl)=C(Cl)Cl)[N+](=O)[O-])N1 (stereo not given) | inactive | –
CCSc1nnc(-c2ccccc2NC(=O)CC)c(=O)[nH]1 | inconclusive: 6.31 µM [inhibitor, single point] | –

Structure (SMILES) | Potency | activity change, negative = inhibition
C=CCN(C(=O)CSc1nc2c(sc3ccccc32)c(=O)n1CCN(CC)CC)c1ccccc1 | inconclusive: 3.16 µM [inhibitor, partial curve, poor fit] | –
COc1ccc(N2CCCn3c2nc2c3c(=O)n(Cc3ccc(C)cc3)c(=O)n2C)c(OC)c1 | inconclusive: 14.1 µM [inhibitor, single point] | –
CCOC(=O)c1cc(-c2ccccc2)n(CCC(=O)N2CCN(c3ccccc3OC)CC2)c1C | inconclusive: 7.31 µM [inhibitor, single point] | –
O=C(CNC(=O)OCc1ccccc1)OC(c1ccccc1)c1ccccc1 | inconclusive: 35.5 µM [inhibitor, single point] | –
O=C(NCCN1CCOCC1)c1cc(-c2ccc(Cl)cc2)on1 | inconclusive: 29.1 µM [activator, partial curve, poor fit] | –
CCOc1cc(/C=N/O)cc(Br)c1OC | inconclusive: 16.4 µM [activator, single point] | –
O=C(/C=C/c1ccccc1)NCCOc1ccccc1 | inactive | –
Cc1ccc(Nc2c(-c3ccccc3)nc3cnccn23)cc1 | inconclusive: 35.5 µM [inhibitor, single point] | –
Nc1nc(NCc2ccco2)nc(N2CCN(Cc3ccccc3)CC2)c1[N+](=O)[O-] | inconclusive: 10 µM [inhibitor, partial curve, poor fit] | –
Cc1ccc(Sc2c(C)nn(C(=O)c3cccc(S(=O)(=O)N4CCOCC4)c3)c2C)cc1 | inconclusive: 5.17 µM [inhibitor, single point] | –
O=S(=O)(c1ccccc1)c1nc(-c2ccccc2Cl)oc1NCCCN1CCOCC1 | inconclusive: 7.08 µM [inhibitor, partial curve, poor fit] | –
Cn1nnnc1SCCNCc1ccccc1OCc1ccccc1Cl | inactive | –
CC(=O)c1ccc(Nc2cc(C)nc3ccccc23)cc1 | inconclusive: 3.66 µM [inhibitor, full curve] | –
COc1ccc(-c2[nH]ncc2CN2CCCOc3c(cccc3OC)C2)c(OC)c1 | inconclusive: 17.8 µM [inhibitor, single point] | –
Cc1ccc(Cl)cc1NC(=O)Cn1c(=O)n(CCC(=O)NCc2ccc3c(c2)OCO3)c(=O)c2sccc21 | inactive | –
O=C(Nc1nc2ccccc2[nH]1)C1CCN(S(=O)(=O)c2cccs2)CC1 | inactive | –
O=C(CCNC(=O)c1ccc(Cl)cc1)Nc1ccc(F)cc1F | inconclusive: 1.3 µM [inhibitor, partial curve, poor fit] | –
CCn1c(C)c(C)c2cc(C(=O)NCc3ccc(F)cc3)ccc21 | inconclusive: 2.82 µM [inhibitor, full curve] | –
CC(C)C(=O)N[C@H]1CCCN1C(=O)C=Cc1ccccc1 | inconclusive: 1.33 µM [activator, single point] | –
CCc1ccc2nc(NC(=O)c3ccc(N4C(=O)CCC4=O)cc3)sc2c1 | inconclusive: 6.31 µM [activator, single point] | –
CCN(CC)CC#CCC(O)(c1ccccc1)c1ccc(Br)cc1 (stereo not given) | inconclusive: 23.1 µM [inhibitor, single point] | –
CC12CCCC[C@@H]1CCC1C2CCC2(C)C1CC[C@@]2(O)CNCCO (stereo not given in full) | – | inconclusive: 16.3% [activator] [at 46.1 µM]

Structure (SMILES) | Potency | activity change, negative = inhibition
COc1cc(OC)c(NC(=O)Nc2cccc(OCc3cc(=O)n4ccccc4n3)c2)cc1Cl | inactive | –
CCOC(=O)c1ccc2c(c1)N(Cc1ccc(F)cc1Cl)C(=O)c1ccccc1S2(=O)=O | inconclusive: 35.5 µM [inhibitor, single point] | –
NC(=O)COC(=O)c1ccccc1Nc1ccc(SC(F)F)cc1 | inconclusive: 3.98 µM [inhibitor, single point] | –
Cn1/c(=N/NC(=O)c2ccccc2Br)sc2ccccc21 | inconclusive: 10 µM [activator, partial curve] | –
COC(=O)CSC1=NS(=O)(=O)c2ccccc21 | inconclusive: 4.47 µM [inhibitor, partial curve, poor fit] | –
Nc1nnnn1/N=C/c1cccc(OCc2ccccc2Cl)c1 | inconclusive: 23.1 µM [inhibitor, partial curve, poor fit] | –
CCN(CC)S(=O)(=O)c1cccc(NC(=O)CNc2cccc(S(=O)(=O)N3CCCC3)c2)c1 | inconclusive: 1.58 µM [inhibitor, full curve] | –
COc1ccc(CCNC(=S)N2CCC(C(=O)c3ccc(F)cc3)CC2)cc1OC | inconclusive: 16.4 µM [inhibitor, partial curve, poor fit] | –
Nc1nc(Sc2c([N+](=O)[O-])cc(C(F)(F)F)cc2[N+](=O)[O-])n[nH]1 | inconclusive: 35.5 µM [inhibitor, single point] | –
Cc1ccc(-c2cc(C(=O)NCc3cccnc3)no2)cc1 | inactive | –
O=c1[nH]c(CN2CCN(S(=O)(=O)/C=C/c3ccccc3)CC2)nc2cc(Cl)ccc12 | inconclusive: 35.5 µM [inhibitor, single point] | –
COc1ccccc1C(=O)COC(=O)c1cc([N+](=O)[O-])ccc1N1CCOCC1 | inactive | –
CCNC(=S)N/N=C(\C)c1cc2ccccc2o1 | inactive | –
O=C(CCC1COc2ccccc2O1)Nc1ncccc1O (stereo not given) | inactive | –
CC1CC(C)CN(C(=O)C(C)N2CCN(S(=O)(=O)c3ccc(Br)s3)CC2)C1 (stereo not given) | inconclusive: 15.8 µM [inhibitor, single point] | –
CCOC(=O)C(C)On1c(-c2cccc(Cl)c2)nc2ccc([N+](=O)[O-])cc21 (stereo not given) | inconclusive: 35.5 µM [inhibitor, single point] | –
Cc1ccc(/C=N/NC(=O)CSc2nnc(-c3ccc(Cl)cc3)n2-c2ccccc2)o1 | inconclusive: 5.8 µM [inhibitor, partial curve, poor fit] | –
Cc1ccccc1C(=O)N1CCN(c2ccccn2)CC1 | inactive | –
NC(=O)c1nsc(C(=O)N(Cc2cccnc2)C(C(=O)NC2CCCCC2)c2ccc(F)cc2)c1N (stereo not given) | inconclusive: 1 µM [inhibitor, full curve, poor fit] | –
Cc1ccc(-n2nc3c(c2NC(=O)c2ccc4c(c2)OCO4)CS(=O)(=O)C3)c(C)c1 | inactive | –
Cc1nnc(NC(=O)CSc2nc(C(C)C)nc3ccccc23)s1 | inconclusive: 4.11 µM [inhibitor, full curve, poor fit] | –

Complete entries, looked up by structure. Values in the order: Potency | activity change, negative = inhibition
NC(=O)COC(=O)c1ccccc1Nc1ccc(SC(F)F)cc1 is entered as inconclusive: 3.98 µM [inhibitor, single point] | –
CCN(CC)S(=O)(=O)c1cccc(NC(=O)CNc2cccc(S(=O)(=O)N3CCCC3)c2)c1 is entered as inconclusive: 1.58 µM [inhibitor, full curve] | –
COC(=O)CSC1=NS(=O)(=O)c2ccccc21 is entered as inconclusive: 4.47 µM [inhibitor, partial curve, poor fit] | –
CC1CC(C)CN(C(=O)C(C)N2CCN(S(=O)(=O)c3ccc(Br)s3)CC2)C1 (stereo not given) is entered as inconclusive: 15.8 µM [inhibitor, single point] | –
